Assay results as given in the odorant receptor screen of Mainland et al. (2015).
Where “and” joins values, the source holds several entries; their conditions need not be identical. Equal entries are not always repeated. Some of the results follow. Single wells; the ratio to wells without odorant was worked out here, and repeats agree poorly.

Tested on: OR6C4 I37V clone 1412
Assay: odorant receptor activation (CRE luciferase / Renilla) (fold of no-odor wells); higher = more activation
Settings: 100 µM

Row | Compound | odorant receptor activation
1 | COC(=O)c1ccccc1 [methyl benzoate] | 0.858
2 | CCCCCOC(C)=O [n-amyl acetate] | 0.803
3 | CC1COCc2cc3c(cc21)C(C)(C)C(C)C3(C)C (centres undefined) [galaxolide] | 4.18
4 | C=CCc1ccc(OC(C)=O)c(OC)c1 [eugenol acetate] | 1.53
5 | CC12CCC(CC1)C(C)(C)O2 [cineole] | 0.207
6 | CCCC(=O)O [butyric acid] | 0.219
7 | CCCCCC(C)=O [2-heptanone] | 0.855
8 | CC(C)(C)c1ccc(CCC=O)cc1 [bourgeonal] | 0.157
9 | CC(=O)OC1CC2CCC1(C)C2(C)C (centres undefined) [isobornyl acetate] | 0.764
10 | CCCCO [1-butanol] | 0.859
11 | CC(=O)c1ccccc1 [acetophenone] | 0.878
12 | COc1ccccc1O [guaiacol] | 0.888
13 | O=CCc1ccccc1 [phenyl acetaldehyde] | 1.45
14 | CC12C=CCC1C1CCC3CC(=O)CCC3(C)C1CC2 (centres undefined) [androstenone] | 0.939
15 | C=C(C)C1CC=C(C)C(=O)C1 (centres undefined) [r-carvone] | 0.967
16 | CCCCCCC=O [heptaldehyde] | 1.09 and 0.742
17 | C=C(C)C1CC=CCC1 (centres undefined) [r-limonene] | 1.16 and 0.785
18 | COC(=O)c1ccccc1O [methyl salicylate] | 1.18
19 | CCCCCCCCOC(C)=O [octyl acetate] | 1.08
20 | CCC1(O)C2(C)CCC(C2)C1(C)C (centres undefined) [2-ethylfenchol] | 0.778
21 | CC(C)=CCCC(C)=CC=O [citral] | 0.286
22 | CC1=NC(C)SC1C (centres undefined) | 0.996
23 | CC12C=CCC1C1CCC3=CC(=O)CCC3(C)C1CC2 (centres undefined) [androstadienone] | 0.916
24 | O=C1CCCCCCCCCCCC(=O)OCCO1 [ethylene brassylate] | 1.39
25 | CCCCCC(=O)O [caproic acid] | 0.283
26 | O=C1CCCCC1 [Cyclohexanone] | 0.901
27 | CC(C)CC(=O)O [isovaleric acid] | 0.854

Tested on: OR6C6 clone 1426
Assay: as above
Settings: 100 µM

Row | Compound | odorant receptor activation
28 | COC(=O)c1ccccc1 [methyl benzoate] | 0.615
29 | CCCCCOC(C)=O [n-amyl acetate] | 0.718
30 | CC1COCc2cc3c(cc21)C(C)(C)C(C)C3(C)C (centres undefined) [galaxolide] | 3.92
31 | C=CCc1ccc(OC(C)=O)c(OC)c1 [eugenol acetate] | 2.09
32 | CC12CCC(CC1)C(C)(C)O2 [cineole] | 0.193
33 | CCCC(=O)O [butyric acid] | 0.181
34 | CCCCCC(C)=O [2-heptanone] | 0.956
35 | CC(C)(C)c1ccc(CCC=O)cc1 [bourgeonal] | 0.168
36 | CC(=O)OC1CC2CCC1(C)C2(C)C (centres undefined) [isobornyl acetate] | 0.913
37 | CCCCO [1-butanol] | 0.779
38 | CC(=O)c1ccccc1 [acetophenone] | 0.934
39 | COc1ccccc1O [guaiacol] | 0.802
40 | O=CCc1ccccc1 [phenyl acetaldehyde] | 1.47
41 | CC12C=CCC1C1CCC3CC(=O)CCC3(C)C1CC2 (centres undefined) [androstenone] | 0.942
42 | C=C(C)C1CC=C(C)C(=O)C1 (centres undefined) [r-carvone] | 1.24
43 | CCCCCCC=O [heptaldehyde] | 1.13 and 0.812
44 | C=C(C)C1CC=CCC1 (centres undefined) [r-limonene] | 1.6 and 0.889
45 | COC(=O)c1ccccc1O [methyl salicylate] | 1.59
46 | CCCCCCCCOC(C)=O [octyl acetate] | 1.15
47 | CCC1(O)C2(C)CCC(C2)C1(C)C (centres undefined) [2-ethylfenchol] | 0.656
48 | CC(C)=CCCC(C)=CC=O [citral] | 0.224
49 | CC1=NC(C)SC1C (centres undefined) | 1.01
50 | CC12C=CCC1C1CCC3=CC(=O)CCC3(C)C1CC2 (centres undefined) [androstadienone] | 0.932
51 | O=C1CCCCCCCCCCCC(=O)OCCO1 [ethylene brassylate] | 2.06
52 | CCCCCC(=O)O [caproic acid] | 0.168
53 | O=C1CCCCC1 [Cyclohexanone] | 0.845
54 | CC(C)CC(=O)O [isovaleric acid] | 0.927
